Measured values published in the supplement of paper PMC6078165.

Test system: MDAMB468
Assay: relative JC-1 red fluorescence (viability) vs pre-drug, coculture with fibroblast (fraction); higher = more viable cancer cells
Method: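 JC-1 labelled TNBC cells cocultured 1:1 (1,500 cells each) with CellTrace Violet stained primary or stromal fibroblasts in 384-well plates in FluoroBrite medium, treated with one of 42 anticancer drugs at 0.1, 1, 10 or 100 uM. JC-1 red fluorescence (mitochondrial integrity in cancer cells only) was read by plate reader every 8 h for 72 h. Values are normalised to each well's pre-drug value. The stock of one drug was tenfold lower, so its dose labels may be too high.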

CC(=O)O[C@@]12CO[C@@H]1C[C@H](O)[C@@]1(C)C(=O)[C@H](O)C3=C(C)[C@@H](OC(=O)[C@H](O)[C@@H](NC(=O)OC(C)(C)C)c4ccccc4)C[C@@](O)([C@@H](OC(=O)c4ccccc4)[C@H]21)C3(C)C [Docetaxel]
relative JC-1 red fluorescence
Details	8 h	16 h	24 h	32 h	40 h	48 h	56 h	64 h	72 h
10 µM, coculture fibroblast: C12385	0.8651	0.857	0.838	0.8183	0.7767	0.781	0.725	0.71	0.699
10 µM, coculture fibroblast: H6013	0.881	0.902	0.874	0.8567	0.81185	0.8181	0.7731	0.765	0.716
10 µM, coculture fibroblast: H6019	0.8582	0.844	0.822	0.81	0.804	0.821	0.788	0.79	0.797
10 µM, coculture fibroblast: H6076	0.884	0.926	0.9012	0.9	0.839	0.84	0.813	0.804	0.867
10 µM, coculture fibroblast: H6231	0.8322	0.958	0.905	0.881	0.839	0.806	0.744	0.71	0.6766
10 µM, coculture fibroblast: HADF	0.864	0.8565	0.8007	0.797	0.735	0.735	0.682	0.664	0.626
10 µM, coculture fibroblast: HCFa	0.861	0.8557	0.8048	0.794	0.725	0.717	0.664	0.635	0.596
10 µM, coculture fibroblast: HCPF	0.8618	0.964	0.9041	0.8968	0.8302	0.794	0.734	0.725	0.7064
10 µM, coculture fibroblast: HHSteC	0.9105	0.911	0.881	0.8529	0.8014	0.798	0.744	0.721	0.671
10 µM, coculture fibroblast: HMF	0.806	0.833	0.905	0.89	0.83	0.822	0.74	0.71	0.676
10 µM, coculture fibroblast: HPFa	0.9026	0.9024	0.875	0.824	0.79	0.787	0.729	0.722	0.659
10 µM, coculture fibroblast: HUF	0.9143	0.844	0.8058	0.748	0.71	0.685	0.647	0.628	0.623
10 µM, coculture fibroblast: Hs5	0.951	0.871	0.96	0.939	0.867	0.838	0.797	0.763	0.793
10 µM, coculture fibroblast: Hs27A	0.865	0.88	0.812	0.814	0.759	0.763	0.726	0.71	0.675
10 µM, coculture fibroblast: Hs343T	0.853	0.9497	0.878	0.864	0.7776	0.7427	0.681	0.656	0.626
10 µM, coculture fibroblast: WS1	0.865	0.818	0.7827	0.72314	0.6465	0.615	0.575	0.5438	0.5273
100 µM, coculture fibroblast: C12385	0.9157	0.915	0.875	0.799	0.76	0.709	0.648	0.61	0.586
100 µM, coculture fibroblast: H6013	0.858	0.829	0.823	0.8358	0.826	0.857	0.8493	0.863	0.838
100 µM, coculture fibroblast: H6019	0.879	0.834	0.815	0.76532	0.7288	0.713	0.674	0.651	0.646
100 µM, coculture fibroblast: H6076	0.9579	0.857	0.983	0.965	0.898	0.877	0.811	0.784	0.841
100 µM, coculture fibroblast: H6231	0.8533	0.924	0.868	0.882	0.813	0.793	0.752	0.731	0.736
100 µM, coculture fibroblast: HADF	0.859	0.829	0.789	0.816	0.797	0.818	0.809	0.825	0.792
100 µM, coculture fibroblast: HCFa	0.883	0.851	0.811	0.821	0.784	0.802	0.773	0.772	0.75
100 µM, coculture fibroblast: HCPF	0.9153	0.808	0.973	0.96	0.886	0.832	0.749	0.72	0.692
100 µM, coculture fibroblast: HHSteC	0.89258	0.888	0.865	0.8501	0.813	0.8453	0.783	0.774	0.7239
100 µM, coculture fibroblast: HMF	0.871	0.847	0.912	0.883	0.777	0.7252	0.643	0.608	0.558
100 µM, coculture fibroblast: HPFa	0.9374	0.912	0.893	0.845	0.822	0.835	0.782	0.775	0.725
100 µM, coculture fibroblast: HUF	0.9244	0.847	0.80327	0.735	0.6781	0.6446	0.5921	0.556	0.537
100 µM, coculture fibroblast: Hs5	0.821	0.869	0.796	0.88	0.973	0.953	0.929	0.9122	0.981
100 µM, coculture fibroblast: Hs27A	0.814	0.7792	0.747	0.773	0.745	0.7571	0.7609	0.758	0.737
100 µM, coculture fibroblast: Hs343T	0.938	0.734	0.954	0.902	0.812	0.743	0.65	0.609	0.572
100 µM, coculture fibroblast: WS1	0.90697	0.8567	0.8021	0.737	0.6827	0.646	0.617	0.576	0.5591

The reference is the same well before dosing, and untreated signal decays as well.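 Labels refer to human fibroblasts, largely primary: uterine (C12385, HUF), lung (H6013), bone (Hs27A), adrenal (HADF), skin (WS1), plus mammary HMF and breast cancer-associated Hs343T. Cancer lines are basal-like or mesenchymal-like triple-negative breast cancer. The paper counts as hits responses shifting over 3x the replicate standard deviation. The tissue of the other fibroblasts is not given here.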
